Reference: publication PMC8215223
These are yes or no findings as the source states them, for the method shown. Binding seen in cells or lysates may run through a third protein. Some binding calls cover weakened binding; strength is not graded here. For part of these data: Where a sequence is shown, tags or fusion partners need not be part of it.

Tests used:
[1] = biological target: T1, HOOK3 (endogenous) (human (endogenous in HeLa)) (UniProt Q86VS8); test: proximity ligation; Duolink PLA kit on fixed, permeabilized HeLa cells; non-treated or 100 ng/mL nocodazole for 16 hr; pHisH3 staining marks mitotic cells
T1 sequence: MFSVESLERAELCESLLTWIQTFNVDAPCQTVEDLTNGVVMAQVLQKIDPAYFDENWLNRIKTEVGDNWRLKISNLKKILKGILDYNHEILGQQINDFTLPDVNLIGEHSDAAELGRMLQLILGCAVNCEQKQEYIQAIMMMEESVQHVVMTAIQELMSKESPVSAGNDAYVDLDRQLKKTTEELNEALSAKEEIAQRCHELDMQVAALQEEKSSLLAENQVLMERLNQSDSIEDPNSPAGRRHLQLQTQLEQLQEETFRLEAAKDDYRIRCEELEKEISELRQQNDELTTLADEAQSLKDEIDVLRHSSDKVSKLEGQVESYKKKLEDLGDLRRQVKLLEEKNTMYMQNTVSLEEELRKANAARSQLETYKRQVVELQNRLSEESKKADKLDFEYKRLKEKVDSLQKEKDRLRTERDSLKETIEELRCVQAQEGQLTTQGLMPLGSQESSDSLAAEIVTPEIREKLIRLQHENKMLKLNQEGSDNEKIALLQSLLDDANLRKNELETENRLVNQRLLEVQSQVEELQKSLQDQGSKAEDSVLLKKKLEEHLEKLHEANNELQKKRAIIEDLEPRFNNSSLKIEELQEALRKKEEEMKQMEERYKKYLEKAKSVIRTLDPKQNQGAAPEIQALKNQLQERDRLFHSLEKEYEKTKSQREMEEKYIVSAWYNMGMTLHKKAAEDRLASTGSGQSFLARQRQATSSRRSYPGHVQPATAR

[2] = biological target: T2, GFP-HOOK3 2SA (S238,707A) (human) (UniProt Q86VS8); test: co-IP; HeLa extracts in Buffer H (sonicated, 15,000 x g); 2 hr at 4°C with A/G-agarose beads pre-linked with antibody; washed with coIP-washing buffer; Western blot; cells left non-treated, treated with 100 ng/mL nocodazole for 16 hr, or released from a thymidine block
T2 sequence: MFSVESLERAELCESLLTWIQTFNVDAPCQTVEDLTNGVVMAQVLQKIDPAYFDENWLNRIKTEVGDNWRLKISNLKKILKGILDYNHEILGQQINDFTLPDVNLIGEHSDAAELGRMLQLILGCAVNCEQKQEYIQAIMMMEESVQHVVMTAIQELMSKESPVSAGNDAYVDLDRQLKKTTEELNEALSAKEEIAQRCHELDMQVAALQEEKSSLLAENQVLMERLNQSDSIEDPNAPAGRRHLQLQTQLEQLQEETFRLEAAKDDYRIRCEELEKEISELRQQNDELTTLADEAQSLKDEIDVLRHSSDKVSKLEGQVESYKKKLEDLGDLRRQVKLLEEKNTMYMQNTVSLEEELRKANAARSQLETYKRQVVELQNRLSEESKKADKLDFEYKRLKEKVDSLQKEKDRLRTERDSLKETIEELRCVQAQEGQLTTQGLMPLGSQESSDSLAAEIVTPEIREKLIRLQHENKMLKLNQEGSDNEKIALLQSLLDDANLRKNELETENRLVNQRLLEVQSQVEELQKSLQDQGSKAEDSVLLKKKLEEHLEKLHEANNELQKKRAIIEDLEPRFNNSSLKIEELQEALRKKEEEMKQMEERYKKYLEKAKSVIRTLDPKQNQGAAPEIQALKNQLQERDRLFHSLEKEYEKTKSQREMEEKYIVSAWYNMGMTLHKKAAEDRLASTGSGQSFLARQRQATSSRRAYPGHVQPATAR

[3] = biological target: T1, HOOK3 (endogenous) (human (endogenous in HeLa)); test: as above
GFP-WT-HOOK3 (human) = biological target: T3, GFP-WT-HOOK3 (human) (UniProt Q86VS8); test: as above
T3 sequence: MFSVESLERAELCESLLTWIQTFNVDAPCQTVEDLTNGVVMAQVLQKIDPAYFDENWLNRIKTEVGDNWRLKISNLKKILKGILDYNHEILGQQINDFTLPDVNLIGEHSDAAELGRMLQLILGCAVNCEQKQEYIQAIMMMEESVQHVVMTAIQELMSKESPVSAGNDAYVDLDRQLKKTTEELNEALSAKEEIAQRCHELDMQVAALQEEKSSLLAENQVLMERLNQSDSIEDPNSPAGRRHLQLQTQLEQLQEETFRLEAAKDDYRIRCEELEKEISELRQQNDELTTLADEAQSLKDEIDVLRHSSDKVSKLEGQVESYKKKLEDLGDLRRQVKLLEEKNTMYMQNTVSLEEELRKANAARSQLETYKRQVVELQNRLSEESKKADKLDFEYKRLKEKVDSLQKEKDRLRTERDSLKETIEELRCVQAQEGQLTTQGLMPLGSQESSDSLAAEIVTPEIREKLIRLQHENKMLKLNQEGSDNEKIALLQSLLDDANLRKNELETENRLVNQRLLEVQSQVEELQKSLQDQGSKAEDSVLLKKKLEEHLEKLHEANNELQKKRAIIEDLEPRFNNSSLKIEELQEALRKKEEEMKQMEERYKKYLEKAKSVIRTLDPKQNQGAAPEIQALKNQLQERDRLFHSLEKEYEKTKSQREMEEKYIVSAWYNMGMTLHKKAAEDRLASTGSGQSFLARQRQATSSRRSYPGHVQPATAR

[4] = biological target: T1, HOOK3 (endogenous) (human (endogenous in HeLa)); test: condition: only cycling cells (no nocodazole, not in mitosis); co-IP; as a1, extracts of cycling (non-treated) HeLa cells only

Binder | binding [1] | binding [2] | binding [3] | binding (GFP-WT-HOOK3 (human)) | binding [4]
GM130 (endogenous) (protein, UniProt Q08379 1-1002) MWPQPRLPPRPAMSEETRQSKLAAAKKKLREYQQRNSPGVPTGAKKKKKIKNGSNPETTTSGGCHSPEDTPKDNAATLQPSDDTVLPGGVPSPGASLTSMAASQNHDADNVPNLMDETKTFSSTESLRQLSQQLNGLVCESATCVNGEGPASSANLKDLESRYQQLAVALDSSYVTNKQLNITIEKLKQQNQEITDQLEEEKKECHQKQGALREQLQVHIQTIGILVSEKAELQTALAHTQHAARQKEGESEDLASRLQYSRRRVGELERALSAVSTQQKKADRYNKELTKERDALRLELYKNTQSNEDLKQEKSELEEKLRVLVTEKAGMQLNLEELQKKLEMTELLLQQFSSRCEAPDANQQLQQAMEERAQLEAHLGQVMESVRQLQMERDKYAENLKGESAMWRQRMQQMSEQVHTLREEKECSMSRVQELETSLAELRNQMAEPPPPEPPAGPSEVEQQLQAEAEHLRKELEGLAGQLQAQVQDNEGLSRLNREQEERLLELERAAELWGEQAEARRQILETMQNDRTTISRALSQNRELKEQLAELQSGFVKLTNENMEITSALQSEQHVKRELGKKLGELQEKLSELKETVELKSQEAQSLQQQRDQYLGHLQQYVAAYQQLTSEKEVLHNQLLLQTQLVDQLQQQEAQGKAVAEMARQELQETQERLEAATQQNQQLRAQLSLMAHPGEGDGLDREEEEDEEEEEEEAVAVPQPMPSIPEDLESREAMVAFFNSAVASAEEEQARLRGQLKEQRVRCRRLAHLLASAQKEPEAAAPAPGTGGDSVCGETHRALQGAMEKLQSRFMELMQEKADLKERVEELEHRCIQLSGETDTIGEYIALYQSQRAVLKERHREKEEYISRLAQDKEEMKVKLLELQELVLRLVGDRNEWHGRFLAAAQNPADEPTSGAPAPQELGAANQQGDLCEVSLAGSVEPAQGEAREGSPRDNPTAQQIMQLLREMQNPRERPGLGSNPCIPFFYRADENDEVKITVI | binds | no binding | binds | binds | no binding
CLASP2 (endogenous) (protein, UniProt O75122 1-1294) MAMGDDKSFDDEESVDGNRPSSAASAFKVPAPKTSGNPANSARKPGSAGGPKVGGASKEGGAGAVDEDDFIKAFTDVPSIQIYSSRELEETLNKIREILSDDKHDWDQRANALKKIRSLLVAGAAQYDCFFQHLRLLDGALKLSAKDLRSQVVREACITVAHLSTVLGNKFDHGAEAIVPTLFNLVPNSAKVMATSGCAAIRFIIRHTHVPRLIPLITSNCTSKSVPVRRRSFEFLDLLLQEWQTHSLERHAAVLVETIKKGIHDADAEARVEARKTYMGLRNHFPGEAETLYNSLEPSYQKSLQTYLKSSGSVASLPQSDRSSSSSQESLNRPFSSKWSTANPSTVAGRVSAGSSKASSLPGSLQRSRSDIDVNAAAGAKAHHAAGQSVRSGRLGAGALNAGSYASLEDTSDKLDGTASEDGRVRAKLSAPLAGMGNAKADSRGRSRTKMVSQSQPGSRSGSPGRVLTTTALSTVSSGVQRVLVNSASAQKRSKIPRSQGCSREASPSRLSVARSSRIPRPSVSQGCSREASRESSRDTSPVRSFQPLASRHHSRSTGALYAPEVYGASGPGYGISQSSRLSSSVSAMRVLNTGSDVEEAVADALKKPARRRYESYGMHSDDDANSDASSACSERSYSSRNGSIPTYMRQTEDVAEVLNRCASSNWSERKEGLLGLQNLLKNQRTLSRVELKRLCEIFTRMFADPHGKRVFSMFLETLVDFIQVHKDDLQDWLFVLLTQLLKKMGADLLGSVQAKVQKALDVTRESFPNDLQFNILMRFTVDQTQTPSLKVKVAILKYIETLAKQMDPGDFINSSETRLAVSRVITWTTEPKSSDVRKAAQSVLISLFELNTPEFTMLLGALPKTFQDGATKLLHNHLRNTGNGTQSSMGSPLTRPTPRSPANWSSPLTSPTNTSQNTLSPSAFDYDTENMNSEDIYSSLRGVTEAIQNFSFRSQEDMNEPLKRDSKKDDGDSMCGGPGMSDPRAGGDATDSSQTALDNKASLLHSMPTHSSPRSRDYNPYNYSDSISPFNKSALKEAMFDDDADQFPDDLSLDHSDLVAELLKELSNHNERVEERKIALYELMKLTQEESFSVWDEHFKTILLLLLETLGDKEPTIRALALKVLREILRHQPARFKNYAELTVMKTLEAHKDPHKEVVRSAEEAASVLATSISPEQCIKVLCPIIQTADYPINLAAIKMQTKVIERVSKETLNLLLPEIMPGLIQGYDNSESSVRKACVFCLVAVHAVIGDELKPHLSQLTGSKMKLLNLYIKRAQTGSGGADPTTDVSGQS | – | – | binds | – | –
